Experimental data as given in PubChem BioAssay AID330 (DTP/NCI, 2004).
The list does not hold the whole screen: it is rich in T/C values a quarter to a half above the control, in often repeated tests (any T/C) and in doses without a T/C. Other doses and runs of a compound stand elsewhere. T/C: endpoint of the treated group in % of that of the vehicle group. Some entries give survivors of the animals treated and no T/C: the source holds a T/C of zero for them, seemingly a mark for toxic or unscored doses. Some doses without a T/C left all or most animals alive at the check, yet need not have been tolerated: survival well below the control is almost never listed, so the zero probably covers shortened survival too. Counts of survivors are from the toxicity check (mostly the fifth day) where no day follows; animals may have died later. Schedule codes are those of the source, read here as Q, the interval in days (D) or hours (H), X, the number of doses. Some entries hold several experiments; their values stand side by side, smallest first. Signs of the kind (2×) say how often a value occurs here. For survival time, this PubChem deposit counts one and a half times the control or more as active, and values a quarter to a half above the control carry no call in these data; other NCI protocols may use other cut-offs. Some T/C values are followed by the survivors on the day toxicity was checked, most often the fifth; where none is given, no animal had died by that day.

System: P388 leukemia ip, CD2F1 mice, survival T/C
Assay: NCI In Vivo Anticancer Drug Screen. Data for tumor model P388 Leukemia (intraperitoneal) in CD2F1 (CDF1) mice
Details: T/C endpoint: median survival time, higher T/C = longer survival
[1] = dose: 100.0 mg/kg/injection, schedule: Q04DX002 (ip), vehicle: saline with Tween-80
[2] = dose: 400.0 mg/kg/injection, schedule: Q04DX002 (ip), vehicle: saline with Tween-80
[3] = dose: 50.0 mg/kg/injection, schedule: Q01DX005 (ip), vehicle: saline with Tween-80
[4] = dose: 200.0 mg/kg/injection, schedule: Q01DX005 (ip), vehicle: saline with Tween-80
[5] = dose: 200.0 mg/kg/injection, schedule: Q01DX009 (ip), vehicle: saline with Tween-80
[6] = dose: 400.0 mg/kg/injection, schedule: Q04DX003 (ip), vehicle: saline with Tween-80
[7] = dose: 200.0 mg/kg/injection, schedule: Q01DX005 (ip), vehicle: Klucel (hydroxypropylcellulose) (HPC)
[8] = dose: 2.0 mg/kg/injection, schedule: Q01DX009 (ip), vehicle: saline
[9] = dose: 240.0 mg/kg/injection, schedule: Q01DX005 (ip), vehicle: saline with Tween-80
[10] = dose: 400.0 mg/kg/injection, schedule: Q04DX003 (ip), vehicle: saline
[11] = dose: 400.0 mg/kg/injection, schedule: Q01DX009 (ip), vehicle: Klucel (hydroxypropylcellulose) (HPC)
[12] = dose: 100.0 mg/kg/injection, schedule: Q01DX009 (ip), vehicle: saline with Tween-80

## CCCCOc1cc(N)nc2ccccc12
[1]
  survivor count: 2 of 6
dose: 200.0 mg/kg/injection, schedule: Q04DX002 (ip), vehicle: saline with Tween-80
  survivor count: 0 of 6
[2]
  survivor count: 0 of 6

## N#CC(C#N)=CN1CCCCCC1
dose: 25.0 mg/kg/injection, schedule: Q04DX003 (ip), vehicle: saline with Tween-80
  survivor count: 5 of 6

## CCN=C1C=CC(=C(c2ccc(N(CC)CC)cc2)c2ccc(N(CC)CC)cc2)c2ccccc21
dose: 25.0 mg/kg/injection, schedule: Q01DX005 (ip), vehicle: saline with Tween-80
  survivor count: 0 of 6
[3]
  T/C: 121 % of control
  survivor count: 0 of 6
dose: 100.0 mg/kg/injection, schedule: Q01DX005 (ip), vehicle: saline with Tween-80
  survivor count: 0 of 6 (2×)
[4]
  survivor count: 0 of 6

## O=C1OCC/C1=C1/NC2CCCCC2NC1=O (centres undefined)
[5]
  survivor count: 1 of 6

## CCOP(=O)(Nc1cc2c(=O)n(C)cnc2cc1Cl)OCC
[6]
  survivor count: 5 of 6

## CCc1nc(N)nc(N)c1-c1ccc(N2CCOCC2)c(N=[N+]=[N-])c1
dose: 50.0 mg/kg/injection, schedule: Q01DX005 (ip), vehicle: Klucel (hydroxypropylcellulose) (HPC)
  survivor count: 1 of 6
dose: 100.0 mg/kg/injection, schedule: Q01DX005 (ip), vehicle: Klucel (hydroxypropylcellulose) (HPC)
  survivor count: 0 of 6
[7]
  survivor count: 0 of 6

## C/C(=N\NC(N)=S)c1ccc2c(c1)Cc1cc(/C(C)=N/NC(N)=S)ccc1-2
[2]
  survivor count: 6 of 6

## COc1ccc(-n2c(SC)nccc2=O)cc1
dose: 400.0 mg/kg/injection, schedule: Q04DX003 (ip), vehicle: Klucel (hydroxypropylcellulose) (HPC)
  survivor count: 6 of 6

## CCN(CC)CCSc1nnc(-c2cc(OC)c(OC)c(OC)c2)o1
dose: 200.0 mg/kg/injection, schedule: Q04DX003 (ip), vehicle: water
  survivor count: 0 of 6

## CC1CCCC(CN=Cc2cc([N+](=O)[O-])ccc2O)[N-]1.CC1CCCC(CN=Cc2cc([N+](=O)[O-])ccc2O)[N-]1.[Ni+2] (centres undefined)
dose: 100.0 mg/kg/injection, schedule: Q04DX003 (ip), vehicle: saline with Tween-80
  survivor count: 6 of 6
dose: 200.0 mg/kg/injection, schedule: Q04DX003 (ip), vehicle: saline with Tween-80
  survivor count: 6 of 6
[6]
  survivor count: 6 of 6

## Nc1nc(N)c2cc(CNc3ccc(C(=O)NC(CC(=O)O)C(=O)O)cc3)ccc2n1 (centres undefined)
dose: 0.25 mg/kg/injection, schedule: Q01DX009 (ip), vehicle: saline
  T/C: 140 % of control
dose: 0.5 mg/kg/injection, schedule: Q04DX003 (ip), vehicle: saline with Tween-80
  T/C: 136 % of control
[8]
  survivor count: 6 of 6

## Cc1cc(=O)oc2c3c(c4c(c12)OC(C)(C)C=C4)OC(C)(C)C=C3
[9]
  survivor count: 6 of 6

## N#CC(CC[N+](=O)[O-])(c1ccccc1)C(c1ccccc1)[N+](=O)[O-] (centres undefined)
dose: 50.0 mg/kg/injection, schedule: Q01DX001 (ip), vehicle: saline with Tween-80
  survivor count: 4 of 6

## Nc1ccccc1Nc1ccncc1
dose: 200.0 mg/kg/injection, schedule: Q01DX009 (ip), vehicle: suspension in saline
  survivor count: 2 of 6

## Brc1ccc(C[N+]23CN4CN(CN(C4)C2)C3)cc1
[5]
  T/C: 140 % of control
[10]
  survivor count: 2 of 6

## O=C(Nc1ccc(Cl)cc1)Nc1nnc(COc2ccc(Cl)c(Cl)c2)o1
dose: 30.0 mg/kg/injection, schedule: Q01DX005 (ip), vehicle: saline with Tween-80
  survivor count: 6 of 6
dose: 60.0 mg/kg/injection, schedule: Q01DX005 (ip), vehicle: saline with Tween-80
  survivor count: 6 of 6

## O=C(O)CN(CCN(CC(=O)O)CC(=O)O)CCN(CC(=O)O)CC(=O)O
[11]
  survivor count: 0 of 6

## CNC(=O)OCc1c(COC(=O)NC)c(-c2ccc(F)cc2)n(C)c1C
dose: 6.25 mg/kg/injection, schedule: Q01DX009 (ip), vehicle: distilled water + Tween-80
  T/C: 134 and 144 % of control
dose: 12.5 mg/kg/injection, schedule: Q01DX009 (ip), vehicle: distilled water + Tween-80
  T/C: 130 and 142 % of control
dose: 50.0 mg/kg/injection, schedule: Q01DX009 (ip), vehicle: distilled water + Tween-80
  T/C: 132 % of control
dose: 100.0 mg/kg/injection, schedule: Q01DX009 (ip), vehicle: distilled water + Tween-80
  survivor count: 0 of 6 and 3 of 6

## Cc1c(-c2ccc(C(=N)N)cc2)oc(-c2ccc(C(=N)N)cc2)c1C
dose: 12.5 mg/kg/injection, schedule: Q01DX009 (ip), vehicle: saline with Tween-80
  T/C: 136 % of control

## Cc1cccc(/C(=C/c2ccc([N+](=O)[O-])cc2)C(=O)Nc2ccc(S(=O)(=O)F)cc2)c1
[9]
  survivor count: 6 of 6

## COC(=O)c1cc(-c2ccc(OC)cc2)[nH]c(=O)c1C#N
[9]
  survivor count: 1 of 6

## O=C1OI(O)c2ccccc21
dose: 240.0 mg/kg/injection, schedule: Q01DX005 (ip), vehicle: Klucel (hydroxypropylcellulose) (HPC)
  survivor count: 0 of 6

## CNC(=O)Oc1coc(CCl)cc1=O
dose: 25.0 mg/kg/injection, schedule: Q01DX009 (ip), vehicle: saline with Tween-80
  T/C: 130 % of control
dose: 50.0 mg/kg/injection, schedule: Q01DX009 (ip), vehicle: saline with Tween-80
  T/C: 130 % of control [5 of 6 alive]
[12]
  survivor count: 1 of 6

## COc1ccc(CC#N)c(OC)c1
dose: 50.0 mg/kg/injection, schedule: Q01DX009 (ip), vehicle: other
  survivor count: 2 of 5
dose: 100.0 mg/kg/injection, schedule: Q01DX009 (ip), vehicle: other
  survivor count: 0 of 5
dose: 200.0 mg/kg/injection, schedule: Q01DX009 (ip), vehicle: other
  survivor count: 0 of 5

## COc1ccc2[nH]cc(C3CCCN4CCCCC34)c2c1 (centres undefined)
[4]
  survivor count: 3 of 6

## O=c1oc(-c2cccc(I)c2)ns1
[11]
  survivor count: 4 of 6

## Cc1cnc(C)n2c(C)nnc12
[10]
  survivor count: 3 of 6

## CC1=CC(=O)[C@@H](O)[C@]2(C)[C@H]3[C@@H](O)[C@H](O)[C@@]4(C)OC[C@@]35[C@@H](C[C@@H]12)OC(=O)C[C@]54O
dose: 1.0 mg/kg/injection, schedule: Q01DX009 (ip), vehicle: saline
  T/C: 126 % of control
[8]
  T/C: 139 and 141 % of control
dose: 4.0 mg/kg/injection, schedule: Q01DX009 (ip), vehicle: saline
  T/C: 137 and 140 % of control
dose: 16.0 mg/kg/injection, schedule: Q01DX009 (ip), vehicle: saline
  survivor count: 2 of 6

## FC(F)(F)C1(C(F)(F)F)N=CC=CN1
dose: 200.0 mg/kg/injection, schedule: Q01DX009 (ip), vehicle: distilled water + alcohol
  survivor count: 0 of 6

## CN=C(N)N/N=C(\C)c1ccc2c(c1)Cc1cc(Cl)ccc1-2
dose: 25.0 mg/kg/injection, schedule: Q04DX002 (ip), vehicle: saline with Tween-80
  T/C: 126 % of control
dose: 50.0 mg/kg/injection, schedule: Q04DX002 (ip), vehicle: saline with Tween-80
  T/C: 130 % of control
[1]
  survivor count: 1 of 6 and 5 of 6

## Clc1ccc(N=C2N=C(Nc3ccc(Cl)cn3)c3ccccc32)nc1
[12]
  survivor count: 6 of 6
[5]
  survivor count: 6 of 6

## COc1oc(C2C/C(=C/C(C)=C/C(C)=C/C(C)=C/c3ccc([N+](=O)[O-])cc3)CO2)c(C)c(=O)c1C (centres undefined)
dose: 0.5 mg/kg/injection, schedule: Q01DX005 (ip), vehicle: saline
  T/C: 129 % of control
dose: 1.0 mg/kg/injection, schedule: Q01DX005 (ip), vehicle: saline
  T/C: 140 % of control
dose: 2.0 mg/kg/injection, schedule: Q01DX005 (ip), vehicle: saline
  T/C: 148 % of control
dose: 4.0 mg/kg/injection, schedule: Q01DX005 (ip), vehicle: saline
  survivor count: 4 of 6 and 6 of 6

## COC(=O)CC(O)(CCCC(C)(C)O)C(=O)OC1C(OC)=CC23CCCN2CCc2cc4c(cc2C13)OCO4 (centres undefined) (tested in a mixture with another compound)
dose: 0.25 mg/kg/injection, schedule: Q01DX009 (ip), vehicle: saline with Tween-80
  T/C: 141 % of control

## O=C(O)c1cc(-c2ccc(Cl)cc2)nc2c1ccc1ccccc12
[7]
  survivor count: 0 of 6
